Results deposited as PubChem BioAssay AID1508588 (Peter MacCallum Cancer Centre, 2020).

Test: 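Knock-downs boosting vemurafenib effects on melanoma cell growth or lactate release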 (primary screen)
System: human WM266.4 melanoma cells (BRAF V600 mutant)
Reagents: siRNA pool against human genes, 40 nM
Duration: 96 h from transfection to read-out
Challenge: vemurafenib 300 nM (about IC25), added 48 h after transfection, for 48 h; comparison arm got DMSO vehicle only
Measurement: 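Cell gain (DAPI nuclei at end minus before drug, mean of two replicates) and medium lactate by absorbance per cell, both as ratio to non-targeting siRNA, also grouped into fold-change classes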
Reading the numbers: cell gain with vemurafenib: higher = more cell gain than with non-targeting siRNA; lactate per cell with vemurafenib: higher = more lactate made per cell
Hit rule: 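a knock-down counts as enhancing when its fold-change classes with vehicle and with vemurafenib, taken together, show a stronger drug effect on cell gain or lactate per cell; exact class pairs not stated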
Calls: active = enhances vemurafenib effect; inactive = no enhancement seen
In all, the deposit lists about 18,000 reagents; this is an unselected part. 790 of them (4.4%) were called active. 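Calls rest on a combination of fold-change classes in drug and vehicle arms, not all shown here.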 Unmarked entries are inactive. Some reagents were tested in more than one well and are listed for each. Reagent sequences are not shown.

no.	target	cell gain with vemurafenib	lactate per cell with vemurafenib
1	KAT14	0.56	0.4
2	OR2AG2	0.36	1.07
3	ZBED1	0.82	0.86
4	ARHGEF35	0.4	0.52
5	NDC1	0.41	0.84
6	TNFSF12	0.63	0.58
7	SLC4A1	0.88	0.72
8	TNFSF18	1.05	0.69
9	OR8G5	0.83	0.77
10	LMNA	0.81	1.62
11	STAG1	0.62	1.38
12	CD3E	0.36	1.52
13	TRIM56	0.86	0.78
14	N4BP2L2	0.36	0.73
15	TBC1D10A	0.68	0.96
16	WDR93	0.43	1.71
17	RECQL4	0.52	0.84
18	IPO5	0.81	1.04
19	OR5K1	0.84	0.55
20	DNAJC13	1.03	1.04
21	IL31	0.41	1.32
22	UTP3	0.44	0.22
23	BAGE2	0.06 (active)	0.68
24	SPATA46	0.93	0.74
25	ALKAL1	0.99	0.8
26	ASB2	0.13	2.15
27	BCAN	0.81	0.72
28	HIF3A	0.99	0.46
29	PNMT	0.03	1.02
30	PPP1R18	0.59	0.64
31	NGB	0.2	0.92
32	PLCB1	0.89	0.6
33	PFKFB3	0.82	0.09
34	PFKFB3	0.62	0.16
35	WDR45	0.66	0.99
36	SSX4B	0.57	0.74
37	GPR156	0.33	1.75
38	TNR	0.48	0.74
39	ZDHHC14	0.58 (active)	0.66
40	NDUFAF1	0.21 (active)	0.68
41	BMX	0.74	0.29
42	VKORC1	0.34	1.77
43	SLC6A17	1.04	0.67
44	GBP6	0.66	0.96
45	AMELY	0.7	0.97
46	AGT	0.44	1.23
47	SLC37A1	0.3	1.16
48	CHAD	0.51	1.88
49	PRR18	0.75	0.65
50	PFKFB1	0.59	0.95
51	PFKFB1	0.73	1.34
52	UGT2B7	0.63	1.17
53	VIL1	0.48	0.34
54	OR4F6	0.78	0.82
55	CCDC102A	1.39	0.58
56	ST6GALNAC4	0.76	0.16
57	NTPCR	0.67	1.07
58	CNIH3	0.6	0.62
59	ADAMTSL5	0.9	0.92
60	CLK3	0.42	1.14
61	MAGEA12	0.85	0.72
62	MBTPS1	0.43	1.13
63	PLEKHA3	0.79	1.04
64	FGF14	0.28	1.25
65	MICOS10	0.05	2.51
66	ADAMTS1	-0.14	3.38
67	ADGRG7	0.38	1.63
68	ELL3	0.75	1.06
69	GPAT3	0.8	0.56
70	PDIA3	0.2	1.02
71	B3GALT4	0.4	1.32
72	CDCA4	0.39	1.54
73	TAP2	0.35	1.18
74	TNP2	0.67	0.86
75	TRIP11	0.5	1.16
76	FBXW7	0.12	0.98
77	UBA6	1.02	0.84
78	PTBP1	1.29	0.7
79	FAM107B	0.51	0.8
80	XAB2	0.15	1.73
81	RDH11	0.37	0.79
82	SGCB	0.6	1.19
83	CFAP210	1.03	1.13
84	ANKRD39	0.61	1.93
85	FOXM1	0.39	1
86	ABAT	0.5	2.12
87	CHFR	1.02	0.77
88	CREB5	1.04	0.97
89	AGFG1	0.18 (active)	0.08
90	TNN	0.59	0.83
91	DTX2	-0.01	1.25
92	ITIH3	0.62 (active)	0.49
93	MAPK4	0.12	0.76
94	RPE65	0.51	0.62
95	LRRC23	0.88	1
96	DNAJC11	0.03	1.58
97	BNIP3L	0.42	0.53
98	TST	0.44	0.79
99	RBM18	1	0.72
100	PRKCZ	0.13	1.02
101	DNAAF4	1.09	0.53
102	MELK	0.81	0.78
103	RBP1	0.12	1.25
104	CAMK2D	0.47	0.79
105	OR2T11	0.53	0.7
106	GPN2	0.77	0.74
107	DDR1	0.22	2.04
